Laboratory results taken from PubChem BioAssay AID540256 (National Center for Advancing Translational Sciences (NCATS), 2011).
Screen size: about 300,000 compounds; about 3,700 (1.2%) were called active. The inconclusive results got no clear call from the source; some entries with a clear call stand among them for comparison. Calls follow the shape of the full dose curve; tested in HEK293 cells. Potencies beside an inconclusive call are fits to weak or partial responses and may not hold up.

Assay: qHTS for Inhibitors of binding or entry into cells for Lassa Virus; also: nearly all actives have a fitted effect of over 50% in size
Details: Lassa virus pseudotype entry inhibition, cell reporter; activity change, negative = inhibition: at 37.9 µM (top of the series) unless noted
% is scaled to controls: 0 for no effect and ±100 for the full control effect; potency is read from the fitted curve at half-maximal effect.

Row | SMILES | Potency | activity change, negative = inhibition
1 | Cc1cc(=O)[nH]c2n[nH]c(-c3ccccc3)c12 | inconclusive: 3.55 µM [activator, partial curve] | –
2 | CN(C)CCN(Cc1ccc(Cl)cc1)c1ccccn1 | inconclusive: 29.1 µM [inhibitor, single point] | –
3 | O=C(c1ccc(CS(=O)c2ccccc2Cl)o1)N1CCN(c2ccccc2F)CC1 (centres undefined) | – | inactive: -12.7% [at 46.1 µM]
4 | CCCc1c(C)[nH]c2nc3ccccc3n2c1=O | inconclusive: 22.4 µM [activator, single point] | –
5 | CCCN1CCC(=NNC(=O)c2ccc(Br)o2)CC1 | – | inactive: 2.28%
6 | COC(=O)C1CCN(C(=O)c2cc3ccccc3oc2=O)CC1 | inconclusive: 29.1 µM [activator, single point] | –
7 | Cc1cc(C)c2c(CC(=O)Nc3nnc(CC(C)C)s3)coc2c1 | – | inactive: 18.6% [at 46.1 µM]
8 | CN1CCN(S(=O)(=O)c2ccc(N3CCN(C(c4ccccc4)c4ccccc4)CC3)nc2)CC1 | inconclusive: 10 µM [inhibitor, partial curve, poor fit] | –
9 | COc1ccc(/C=C(\C#N)C(=O)NCCc2ccccc2)cc1OCc1ccccc1 | inconclusive: 35.5 µM [inhibitor, single point] | –
10 | COc1ccc(C2c3ccc4ccccc4c3Oc3ncn(CCN(C)C)c(=N)c32)cc1 (centres undefined) | inconclusive: 10 µM [inhibitor, partial curve, poor fit] | –
11 | CCCCCNCC(=O)Nc1cccc(C(=O)Nc2cccc(C(F)(F)F)c2)c1 | inconclusive: 0.398 µM [activator, partial curve, poor fit] | –
12 | CC(C)(C)NC(=O)C(c1ccc(F)cc1)N(Cc1cccs1)C(=O)c1ccc(CN2CCOCC2)o1 (centres undefined) | – | inactive: 7.98%
13 | CCOC(=O)/C(N=Nc1c(Br)cc(Br)cc1Br)=C(\C)O | inconclusive: 11.2 µM [inhibitor, partial curve, poor fit] | –
14 | CC(=O)Nc1ccc(NC(=O)c2ccco2)cc1 | inconclusive: 29.1 µM [activator, single point] | –
15 | O=C(CSc1nnc(-c2ccccc2Cl)o1)N1CCCC1 | active: 2.82 µM | –
16 | CCOC(=O)C(=O)NNc1ccccc1OC | inconclusive: 35.5 µM [activator, single point] | –
17 | COc1cc2nc(SCc3ccc(F)cc3)n3nc(CCn4c(C)nc5ccccc54)nc3c2cc1OC | inconclusive: 35.5 µM [inhibitor, single point] | –
18 | Cc1c(C(=O)N/N=C/c2c(O)ccc3ccccc23)nnn1-c1nonc1N | inconclusive: 5.62 µM [inhibitor, single point] | –
19 | O=C(CSc1nc(O)cc(=O)n1-c1ccccc1)N1CCCCC1 | inconclusive: 6.51 µM [activator, single point] | –
20 | CCCOc1ccc(C(=O)NNC(=S)NC(=O)CC)cc1 | active: 14.6 µM | –
21 | CC(=O)c1ccc(Nc2ccc(-c3ccccc3C)nn2)cc1 | – | inactive: 2.11%
22 | O=C1c2cccc3cc(Br)cc(c23)C(=O)N1Nc1ccccc1 | inconclusive: 16.4 µM [inhibitor, single point] | –

Records 10 to 11 of the list above:
Row | SMILES | Potency | activity change, negative = inhibition
10 | COc1ccc(C2c3ccc4ccccc4c3Oc3ncn(CCN(C)C)c(=N)c32)cc1 (centres undefined) | inconclusive: 10 µM [inhibitor, partial curve, poor fit] | –
11 | CCCCCNCC(=O)Nc1cccc(C(=O)Nc2cccc(C(F)(F)F)c2)c1 | inconclusive: 0.398 µM [activator, partial curve, poor fit] | –

Continued.

Row | SMILES | Potency | activity change, negative = inhibition
23 | Cc1nn(C)c2c1c(-c1ccccc1)cc(=O)n2CC(=O)NC(C)(C)C | inconclusive: 25.1 µM [inhibitor, single point] | –
24 | Cc1cc(C)n(-c2cc(-n3nc(C)cc3C)ncn2)n1 | – | inactive: 2.84%
25 | NNc1nc2c(-c3ccc(F)cc3)nnn2c2ccccc12 | – | inactive: -24.2%
26 | CCCCc1ccc(-c2ccc(C)cc2O)nc1 | active: 10.3 µM | –
27 | Cn1c(=O)c2c(nc(CN3CCN(c4cccc(Cl)c4)CC3)n2CCc2ccccc2)n(C)c1=O | inconclusive: 20 µM [inhibitor, partial curve, poor fit] | –
28 | COc1ccc(-c2coc3cc(O)ccc3c2=O)cc1OC | – | inactive: -13%
29 | Cc1cc(C)cc(NC(=O)CCNS(=O)(=O)c2ccc3c(c2)oc(=O)n3C)c1 | – | inactive: -1.65%
30 | COc1ccc(S(=O)(=O)N2CCCCCC2)cc1C(=O)N(C)Cc1ccc(Cl)cc1Cl | inconclusive: 7.94 µM [inhibitor, partial curve, poor fit] | –
31 | OCCNCCCOc1ccc(Cl)cc1Br | – | inactive: -7.17%
32 | Cc1ccc(NC(=O)Cn2c(=O)nc(-c3ccccc3F)c3cc(Cl)ccc32)c(Br)c1 | inconclusive: 11.2 µM [inhibitor, single point] | –
33 | COC(=O)c1ccc(NC2=C(Cl)C(=O)OC2OC(=O)c2ccccc2)cc1 (centres undefined) | – | inactive: -3.32% [at 46.1 µM]
34 | COc1ccc(N(CC(=O)N/N=C/c2ccc3c(c2)OCO3)S(=O)(=O)c2ccc(NC(C)=O)cc2)cc1 | inconclusive: 5.8 µM [inhibitor, partial curve] | –
35 | CCn1c(COc2ccccc2)nnc1SCC(=O)C(C)(C)C | – | inactive: -4.35%
36 | COc1ccc(Cl)cc1NC(=O)CSc1nnc(CNC(=O)c2cccs2)o1 | inconclusive: 5.62 µM [activator, full curve, poor fit] | –
37 | CC(C)C(C(=O)Nc1ccc2c(c1)OCO2)N1C(=O)c2ccccc2C1=O (centres undefined) | inconclusive: 1.46 µM [activator, partial curve, poor fit] | –
38 | COCOCCn1cc(CN2CCS(=O)(=O)N(Cc3ccc(-c4ccc(OC)nc4)cc3)C(C(C)C)C2=O)nn1 (centres undefined) | inconclusive: 3.15 µM [inhibitor, partial curve, poor fit] | –
39 | CCOc1cc(C2C(C#N)=C(N)OC(C)=C2C(C)=O)c(Br)c(Br)c1OC(C)C (centres undefined) | inconclusive: 8.91 µM [inhibitor, partial curve, poor fit] | –
40 | Cc1cc(C)c(OCC(=O)NCC2COc3ccccc3O2)c(C)c1 (centres undefined) | – | inactive: -1.95%
41 | Cc1cccc(C)c1OCCOCCN1CCN(C)CC1 | inconclusive: 8.2 µM [activator, partial curve, poor fit] | –
42 | COc1cc(/C=C(\C#N)c2nc3ccc(C)cc3[nH]2)ccc1OC(C)C | inconclusive: 2 µM [activator, full curve, poor fit] | –
43 | Cn1c(=O)n(CCc2ccccc2)c(=O)c2c1ncn2Cc1ccccc1 | inconclusive: 10.3 µM [inhibitor, partial curve] | –
44 | CCN(CC)C(=O)Oc1ccc(Br)c2ccccc12 | inconclusive: 1.26 µM [inhibitor, partial curve, poor fit] | –
